Measurements from publication PMC3968527, “Dynamic mass redistribution analysis of endogenous β-adrenergic receptor signaling in neonatal rat cardiac fibroblasts” (Pharmacology Research & Perspectives, 2014).

System: endogenous βAR in primary neonatal rat cardiac fibroblasts (NRCF)
Assay: Dynamic mass redistribution (DMR) response to βAR ligands in NRCF
Assay type: cell-based
Details: Cardiac fibroblast, βAR antagonist alone, positive-deflected DMR (inverse agonism)

In the case of CC(C)NCC(O)COc1cccc2ccccc12 (stereo not shown) [Propranolol, propranolol], the EC50 is reported as 32.7 ± 6.4 nM.
